PubChem BioAssay AID1259254 | NCATS – 2017

- Aim: 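Genome-wide screen for genes that prevent DNA re-replication in cancer cells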 (primary screen)
- System: human HCT116 colorectal cancer cells
- Reagents: single siRNA against human genes
- Time to read-out: 3 days
- Read-out: 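Nuclei stained with Hoechst and imaged; cell-cycle phase assigned by DNA content; G2 share scaled per plate, non-targeting siRNA 0%, GMNN siRNA 100%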
- Direction: G2 robust z-score and G2 cells, % of GMNN control: higher = more G2 cells, more excess DNA replication
- Hit rule: 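Active siRNAs have a G2 robust z of 5 or more median absolute deviations over the median, which in these data means about 38% or higher of GMNN control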
In all, the deposit lists about 59,000 reagents; this is a random part of them. About 1,550 of them (2.6%) were called active. 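G2 share is only a proxy for re-replication; each gene was hit by three separate siRNAs, and active genes were retested.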 Reagents against one gene are numbered here. Not all columns of the deposit are shown. Not stated in the record: the amount of reagent.

ZIM2 (zinc finger imprinted 2) #1 showed G2 robust z-score 0.0235; G2 cells, % of GMNN control 3.13; inactive.
Silencing of ZIM2 (zinc finger imprinted 2) #2 came out at: G2 robust z-score 0.298; G2 cells, % of GMNN control 5.06; inactive.
With knock-down of ZIM2 (zinc finger imprinted 2) #3 the results were G2 robust z-score -0.892; G2 cells, % of GMNN control -3.31; inactive.
Against SLC22A10 #1, the entry reads G2 robust z-score -0.605; G2 cells, % of GMNN control -1.29; inactive.
After knock-down of SLC22A10 #2, the screen gave G2 robust z-score 0.552; G2 cells, % of GMNN control 6.85; inactive.
Knock-down of SLC22A10 #3 resulted in: G2 robust z-score -0.99; G2 cells, % of GMNN control -4; inactive.
For HMGB4 (high mobility group box 4) #1, the entry reads G2 robust z-score 1.19; G2 cells, % of GMNN control 11.4; inactive.
HMGB4 (high mobility group box 4) #2 scored G2 robust z-score 0.57; G2 cells, % of GMNN control 6.98; inactive.
Against HMGB4 (high mobility group box 4) #3, the values are G2 robust z-score -0.0821; G2 cells, % of GMNN control 2.39; inactive.
Against SENP7 (SUMO specific peptidase 7) #1 the deposit lists G2 robust z-score 2.27; G2 cells, % of GMNN control 18.9; inactive.
With knock-down of SENP7 (SUMO specific peptidase 7) #2 the results were G2 robust z-score -0.282; G2 cells, % of GMNN control 0.986; inactive.
SENP7 (SUMO specific peptidase 7) #3 scored G2 robust z-score -0.691; G2 cells, % of GMNN control -1.9; inactive.
